This data set can be described thus: general procedure: peptide synthesis; pre-activated esters SEM100A-D, SEM120A-D with DIPEA. To be noted: for step yield: molar yield.

The record followed here is US20260265330 (published 2026).

Consider Semaglutide, for which the “crude HPLC purity” value (late stage modification step, HPLC) turned out to be 87.30%. Also, the step yield by setting is: (late stage modification step) 93.50%; (purification step, run 1) 79.15%; (purification step, run 2) 78.02%; (purification step, run 3) 88.02%; (purification step, run 4) 84.30%; (purification step, run 5) 82.58%. The step yield reads like this: (purification step, run 6) 83.50%; (purification step, run 7) 81.50%; (purification step, run 8) 80.72%; (purification step, run 9) 82.71%; (purification step, run 10) 78.02%. For the same substance, the “final HPLC purity” value by setting is: (purification step, HPLC, run 1) 99.62%; (purification step, HPLC, run 2) 92.26%; (purification step, HPLC, run 3) 99.55%; (purification step, HPLC, run 4) 99.58%; (purification step, HPLC, run 5) 99.55%; (purification step, HPLC, run 6) 99.31%. Moreover, the “final HPLC purity” value runs as follows: (purification step, HPLC, run 7) 99.31%; (purification step, HPLC, run 8) 99.26%; (purification step, HPLC, run 9) 95.35%; (purification step, HPLC, run 10) 95.95%.
